Reference: the supplement of paper PMC11060735
Values joined by “and” are separate entries in the source; they are usually repeats but may differ in a detail not shown here. Equal values may be shown once. Where a name gives a salt, the structure may show the parent alone. ± gives the standard deviation of the averaged measurements. In all, about 1,800 compounds were measured (“GFP- (p16Ink4a-) cell count relative to negative-control wells”: median about 0.99, lowest 2% from about 0.5 on). This is one part of the list.

Tested on: mouse p16Ink4a+/- lung fibroblasts (INKBRITE, bleomycin-injured)
Assay: GFP- (p16Ink4a-) cell count relative to negative-control wells (fold of vehicle); higher = more p16Ink4a- cells surviving
Settings: 1 µM; 3 days

Row | Structure (SMILES) | GFP-
1 | CC(=O)Oc1cccc2c1C(=O)c1c(OC(C)=O)cc(C(=O)O)cc1C2=O [Diacerin] | 1.14
2 | CC(C)OC(=O)C1=CN(C(=O)c2ccc(F)c(F)c2)CC(C)(C)c2c1[nH]c1ccccc21 | 1.04
3 | Oc1cc(O)cc(/C=C/c2ccc(O)c(O)c2)c1 [Piceatannol] | 1.06
4 | Cc1ccc(NC(=O)C2(c3ccc4c(c3)OC(F)(F)O4)CC2)nc1-c1cccc(C(=O)O)c1 [Lumacaftor] | 0.94
5 | CCCS(=O)c1ccc2[nH]c(NC(=O)OC)nc2c1 (configuration not stated) [Albendazole Oxide] | 1
6 | COc1cc(Nc2ncc(F)c(Nc3ccc4c(n3)N(COP(=O)(O)O)C(=O)C(C)(C)O4)n2)cc(OC)c1OC [Fostamatinib] | 0.771
7 | Cc1c(CN2CCN(C(=O)[C@H](C)O)CC2)sc2c(N3CCOCC3)nc(-c3cnc(N)nc3)nc12 | 0.612
8 | CC(C)(C)Cn1c(N)nc2ccc(-c3[nH]c(C(C)(C)C)nc3-c3ccc(F)cc3)nc21 | 0.974
9 | CCCCC(F)(F)C(=O)CC[C@H]1[C@H](O)CC(=O)[C@@H]1CCCCCCC(=O)O [Lubiprostone] | 0.931
10 | NNc1nncc2ccccc12 [Hydralazine] | 1.12
11 | O=C1c2ccccc2C(=O)c2c1ccc(O)c2O [Alizarin] | 1.05
12 | COc1cc(/C=C/C(=O)/C=C(O)/C=C/c2ccc(O)c(OC)c2)ccc1O | 1.11
13 | C[C@H](CCC(=O)O)[C@H]1CC[C@H]2[C@@H]3[C@H](O)C[C@@H]4C[C@H](O)CC[C@]4(C)[C@H]3CC[C@]12C [Chenodeoxycholic Acid] | 1.05
14 | CCN(CC)CC#CCOC(=O)C(O)(c1ccccc1)C1CCCCC1 (configuration not stated) [Oxybutynin] | 0.971
15 | C=CC[C@@H]1/C=C(\C)C[C@H](C)C[C@H](OC)[C@H]2O[C@@](O)(C(=O)C(=O)N3CCCC[C@H]3C(=O)O[C@H](/C(C)=C/[C@@H]3CC[C@@H](O)[C@H](OC)C3)[C@H](C)[C@@H](O)CC1=O)[C@H](C)C[C@@H]2OC [Tacrolimus] | 1.15
16 | Cc1cc(=O)n(-c2ccccc2)n1C [Antipyrine] | 0.992
17 | O=C(O)CSCC(=O)NC1CCSC1=O (configuration not stated) [Erdosteine] | 1.15
18 | COC(=O)N[C@H](C(=O)N[C@@H](Cc1ccccc1)[C@@H](O)CN(Cc1ccc(-c2ccccn2)cc1)NC(=O)[C@@H](NC(=O)OC)C(C)(C)C)C(C)(C)C [Atazanavir] | 1.08
19 | O=C(Nc1cccc(Cl)c1)Nc1ncc(CCNc2ncnc3ccsc23)s1 [SNS-314 Mesylate] | 0.646 ± 0.14
20 | Nc1c(CC(=O)O)cccc1C(=O)c1ccc(Br)cc1 [Bromfenac] | 1.1
21 | CCOC(=O)[C@H](CCc1ccccc1)N[C@@H](C)C(=O)N1C(=O)N(C)C[C@H]1C(=O)O [Imidapril HCl] | 1.01
22 | O=C(O)COCCN1CCN(C(c2ccccc2)c2ccc(Cl)cc2)CC1 (configuration not stated) [Cetirizine] | 1.06
23 | CC(C)c1noc(N2CCC(COc3ccc(-c4ccc(S(C)(=O)=O)cc4)nc3)CC2)n1 | 0.937
24 | CCCC(=O)O[C@]1(C(=O)COC(C)=O)CC[C@H]2[C@@H]3C[C@H](F)C4=CC(=O)C=C[C@]4(C)[C@@]3(F)[C@@H](O)C[C@@]21C [Difluprednate] | 0.76
25 | Cc1cc(C(=O)NOCCO)c(Nc2ccc(I)cc2F)n(C)c1=O | 0.841
26 | COCCOc1ccc2c(c1)ncn2-c1ccc2cccc(N3CCC(N)CC3)c2n1 | 0.879

Among those listed so far, these contain a carbonyl joined to an NH by a bond outside any ring:
Row | Structure (SMILES) | GFP-
4 | Cc1ccc(NC(=O)C2(c3ccc4c(c3)OC(F)(F)O4)CC2)nc1-c1cccc(C(=O)O)c1 [Lumacaftor] | 0.94
5 | CCCS(=O)c1ccc2[nH]c(NC(=O)OC)nc2c1 (configuration not stated) [Albendazole Oxide] | 1
17 | O=C(O)CSCC(=O)NC1CCSC1=O (configuration not stated) [Erdosteine] | 1.15
18 | COC(=O)N[C@H](C(=O)N[C@@H](Cc1ccccc1)[C@@H](O)CN(Cc1ccc(-c2ccccn2)cc1)NC(=O)[C@@H](NC(=O)OC)C(C)(C)C)C(C)(C)C [Atazanavir] | 1.08
19 | O=C(Nc1cccc(Cl)c1)Nc1ncc(CCNc2ncnc3ccsc23)s1 [SNS-314 Mesylate] | 0.646 ± 0.14
25 | Cc1cc(C(=O)NOCCO)c(Nc2ccc(I)cc2F)n(C)c1=O | 0.841

Carrying on:

Row | Structure (SMILES) | GFP-
27 | CC(C)c1onc(-c2c(Cl)cccc2Cl)c1COc1ccc(/C=C/c2cccc(C(=O)O)c2)c(Cl)c1 | 1.04
28 | Cc1cc(Nc2ncc(Cl)c(Nc3ccccc3S(=O)(=O)C(C)C)n2)c(OC(C)C)cc1C1CCNCC1 [Ceritinib] | 1.03
29 | OC[C@@H]1CC[C@H](n2cnc3c(O)ncnc32)O1 [Didanosine] | 0.975
30 | Cc1ccc(-n2nc(C(C)(C)C)cc2NC(=O)Nc2ccc(OCCN3CCOCC3)c3ccccc23)cc1 [Doramapimod] | 1.07
31 | CCCN(CCC)S(=O)(=O)c1ccc(C(=O)O)cc1 [Probenecid] | 1.01
32 | O=C1NC(=O)C(=Cc2ccc3c(c2)OC(F)(F)O3)S1 (stereo in doubt) | 1.03
33 | Nc1nc(=O)n([C@@H]2CS[C@H](CO)O2)cc1F [Emtricitabine] | 1.07
34 | C#C[C@]1(O)CC[C@H]2[C@@H]3CCC4=CC(=O)CC[C@@H]4[C@H]3CC[C@@]21C [Norethisterone] | 0.87
35 | CN1CCC(=C2c3ccccc3CC(=O)c3sccc32)CC1 [Ketotifen] | 0.992
36 | CN1CCN(c2ccc3[nH]c(-c4c(O)nc5cccc(F)c5c4N)nc3c2)CC1 [Dovitinib] | 0.938 and 0.849
37 | Cc1csc(-c2nnc(Nc3ccc(Oc4ncccc4-c4ccnc(N)n4)cc3)c3ccccc23)c1 | 0.643 ± 0.16
38 | CNC(=O)c1ccc(N2C(=S)N(c3ccc(C#N)c(C(F)(F)F)c3)C(=O)C2(C)C)cc1F [Enzalutamide] | 1.11
39 | Nc1nc(O)ncc1F [Flucytosine, 5-fluorocytosine] | 0.76
40 | O=C1[C@H](Cc2ccc(O)cc2)N2C(=O)CCN(C(=O)NCc3ccccc3)[C@H]2CN1Cc1cccc2ccccc12 | 0.922
41 | COc1ccccc1N1CCN(CC(O)COc2cccc3ccccc23)CC1 (configuration not stated) [Naftopidil Dihydrochloride, Naftopidil] | 1.07 and 1.02
42 | CN1CC[C@H](c2c(O)cc(O)c3c(=O)cc(-c4ccccc4Cl)oc23)[C@H](O)C1 [Flavopiridol] | 0.326
43 | COc1cc2c(Oc3ccc4[nH]c(C)cc4c3F)ncnc2cc1OCCCN1CCCC1 | 0.845
44 | O=C(O)C1=CO[C@@H](O[C@@H]2O[C@H](CO)[C@@H](O)[C@H](O)[C@H]2O)[C@@H]2C(CO)=CC[C@H]12 [Geniposidic acid] | 1.05
45 | Cc1ccc([N+](=O)[O-])cc1S(=O)(=O)N(C)/N=C/c1cnc2ccc(Br)cn12 | 0.385
46 | CC(C)Cn1cnc2c(N)nc3ccccc3c21 [Imiquimod] | 1.17
47 | COc1cc2ncnc(Nc3ccc(F)c(Cl)c3)c2cc1NC(=O)/C=C/CN1CCCCC1 [Dacomitinib] | 0.95
48 | O=C(COc1cccc2c(O)nccc12)c1ccccc1 | 0.869 ± 0.041
49 | Clc1ccc(COC(Cn2ccnc2)c2ccc(Cl)cc2Cl)c(Cl)c1 (configuration not stated) [Miconazole] | 1.17 and 1.09
50 | COc1ccc(CNc2nc(N3CCC[C@H]3CO)ncc2C(=O)NCc2ncccn2)cc1Cl [Avanafil] | 1.06
51 | NC1(C(=O)N[C@@H](CCO)c2ccc(Cl)cc2)CCN(c2ncnc3[nH]ccc23)CC1 | 0.935
52 | CC(C)C[C@@H](C=O)NC(=O)[C@H](CC(C)C)NC(=O)[C@H](CC(C)C)NC(=O)OCc1ccccc1 | 0.302

Row | Structure (SMILES) | GFP-
53 | CCC(=O)c1c(O)cc(O)cc1O [Flopropione] | 0.804
54 | N=C(N)c1ccc(OCCCCCOc2ccc(C(=N)N)cc2)cc1 [Pentamidine] | 0.926
55 | CN(Cc1ccc(C(C)(C)C)cc1)Cc1cccc2ccccc12 [Butenafine] | 1.04
56 | C#C[C@]1(O)CC[C@H]2[C@@H]3CCc4cc(OC)ccc4[C@H]3CC[C@@]21C [Mestranol] | 1.15
57 | C[C@H]1O[C@H](O[C@H]2[C@H](O)[C@@H](O)[C@@H](O[C@H]3[C@H](O)[C@@H](O)[C@H](O)O[C@@H]3CO)O[C@@H]2CO)[C@H](O)[C@@H](O)[C@@H]1N[C@H]1C=C(CO)[C@@H](O)[C@H](O)[C@H]1O [Acarbose] | 1.04
58 | CCOC(=O)n1ccn(C)c1=S [Carbimazole] | 1.04
59 | COc1ccc(C(C)=O)c(O)c1 [Paeonol] | 1.18
60 | CCOCC(O)COc1ccc(NC(=O)CC[S+](C)C)cc1 (configuration not stated) [Suplatast Tosylate] | 0.935
61 | N[C@H]1CN(c2c(F)cc3c(=O)c(C(=O)O)cn([C@@H]4C[C@@H]4F)c3c2Cl)CC12CC2 [Sitafloxacin Hydrate] | 0.921
62 | CN(NC(=O)CC(=O)NN(C)C(=S)c1ccccc1)C(=S)c1ccccc1 [Elesclomol] | 0.277
63 | Cc1nnc(NS(=O)(=O)c2ccc(N)cc2)s1 [Sulfamethizole] | 1.03
64 | Sc1ncnc2[nH]cnc12 [Mercaptopurine] | 1.05
65 | CNC(=O)c1cccc(-c2ccc3c(N4CCOC[C@@H]4C)nc(N4CCOC[C@@H]4C)nc3n2)c1 | 0.62
66 | CC(=O)O[C@]1(C(C)=O)CC[C@H]2[C@@H]3C=C(Cl)C4=CC(=O)[C@@H]5C[C@@H]5[C@]4(C)[C@H]3CC[C@@]21C [Cyproterone Acetate] | 1.14
67 | O=C(NC1CCNCC1)c1n[nH]cc1NC(=O)c1c(Cl)cccc1Cl | 1.15
68 | Cc1ccc(S(=O)(=O)Nc2nc3ccccc3nc2Nc2ccc3nsnc3c2)cc1 | 1.02
69 | O=C(O)c1ccc(-n2nc(-c3ccccc3O)nc2-c2ccccc2O)cc1 [Deferasirox] | 0.656
70 | COc1cc(OC2CCN(C)CC2)ccc1Nc1ncc2c(n1)n(C1CCCC1)c(=O)n2C | 0.875
71 | CCCc1cc(O)nc(S)n1 [Propylthiouracil] | 1.03
72 | CC(=O)O/N=C1/C(=O)N(Cc2cc(Cl)ccc2Cl)c2ccc(Cl)cc21 | 0.961
73 | C[C@]12CC[C@@H]3c4ccc(O)cc4C[C@@H](CCCCCCCCCS(=O)CCCC(F)(F)C(F)(F)F)[C@H]3[C@@H]1CC[C@@H]2O (some centres not stated) [Fulvestrant] | 1.15
74 | O=c1[nH]c(=O)n([C@H]2C[C@H](O)[C@@H](CO)O2)cc1C(F)(F)F [Trifluridine] | 0.95
75 | COc1cc(OC)c(/C=C/S(=O)(=O)Cc2ccc(OC)c(NCC(=O)O)c2)c(OC)c1 [Rigosertib] | 0.916
76 | O=C(/C=C/c1ccc(O)cc1)c1ccc(O)cc1O [Isoliquiritigenin] | 0.95
77 | COC1CCN(C(=O)c2cc(Cc3nnc(O)c4ccccc34)ccc2F)CC1 | 0.855 ± 0.061
